In this data set the test system is HS-SY-II and SYO1 cells. Briefly: Total RNA sequencing, Compound 1 vs DMSO. It counts as cell-based, human. Here is the method:
To comprehensively interrogate the transcriptomic changes occurring in synovial sarcoma cells, HS-SY-II and SYO1 cells were cultured in media containing DMSO and media containing Compound 1 and subjected to total RNA sequencing. HS-SY-II and SYO1 cells were contacted with either Compound 1 at concentrations of between about 25 nM and about 100 nM, or DMSO for 48 hours. The cell suspensions were pelleted, and RNA was extracted with varying concentrations. TRIzol Reagent was used to extract total RNA from SYO1, and HS-SY-II cell pellets, and strands were synthesized using Protoscript II (NEB) with poly A selection. qPCR was performed using TaqMan Gene Expression Master Mix and FAM probes for SUMO2, HPRT, and GAPDH. Paired-end (2×100 bp) sequencing was performed on the NovaSeq 6000 Sequencing System. Data Processing and QC was completed using FastQC and QC summarization was done by MultiQC. Mapping to human genome hg38 v84 was done using STAR sequence aligner, and expression was estimated using RSEM. […]
The RNA-seq reads were analyzed for each sample to the human reference genome GRCh38 using STAR aligner. […] For target genes of interest in both HS-SY-II and SYO1, a total of 960 differentially expressed target genes of interest (DEGs) were analyzed using […] (FIG. 4A).
Upregulation of target genes of interest activated by the chimeric SS18-SSX fusion protein in DMSO media and in media containing Compound 1 were mapped with size and […] (FDR) quantified, based on […] (NES) values (FIG. 4D). Expression of various target genes of interest, upregulation, and downregulation by SS18-SSX fusion genomes, were measured in contact with varying concentrations of Compound 1 (FIG. 4E). […] Enrichment scores were calculated using gene set enrichment analysis for HS-SY-II cells in contact with DMSO and varying concentrations of Compound 1 for target genes of interest (FIG. 4H). […]

[1] abbreviates: additional screens, threshold |fold change|>2 and adjusted p-value<0.01.

With `Cc1sc(C(=O)c2cncnc2N[C@@H]2C[C@H](COS(N)(=O)=O)[C@@H](O)C2)cc1[C@@H]1NCCc2ccc(Cl)cc21` [Compound 1], the “differentially expressed target genes of interest (DEGs)” value (HS-SY-II and SYO1, Compound 1 about 25 nM to about 100 nM or DMSO, 48 hours) is 960. Under setting [1], the DEGs upregulated was found to be 908 and the “total DEGs detected” value worked out at 1100.

These data come from patent US20250268898A1, “METHODS OF TREATING SYNOVIAL SARCOMA PATHOGENESIS BY SUMO2 INHIBITION” (Sanford Burnham Prebys Medical Discovery Institute, priority 2024, published 2025).
